The supplement of paper PMC10849652
The list shows a part of the results.

The chains behind the UniProt entries cited, without tags or fusion partners. Where a name states a change or a piece, a line headed by the entry shows the natural chain unless it says otherwise.
UniProt P25205: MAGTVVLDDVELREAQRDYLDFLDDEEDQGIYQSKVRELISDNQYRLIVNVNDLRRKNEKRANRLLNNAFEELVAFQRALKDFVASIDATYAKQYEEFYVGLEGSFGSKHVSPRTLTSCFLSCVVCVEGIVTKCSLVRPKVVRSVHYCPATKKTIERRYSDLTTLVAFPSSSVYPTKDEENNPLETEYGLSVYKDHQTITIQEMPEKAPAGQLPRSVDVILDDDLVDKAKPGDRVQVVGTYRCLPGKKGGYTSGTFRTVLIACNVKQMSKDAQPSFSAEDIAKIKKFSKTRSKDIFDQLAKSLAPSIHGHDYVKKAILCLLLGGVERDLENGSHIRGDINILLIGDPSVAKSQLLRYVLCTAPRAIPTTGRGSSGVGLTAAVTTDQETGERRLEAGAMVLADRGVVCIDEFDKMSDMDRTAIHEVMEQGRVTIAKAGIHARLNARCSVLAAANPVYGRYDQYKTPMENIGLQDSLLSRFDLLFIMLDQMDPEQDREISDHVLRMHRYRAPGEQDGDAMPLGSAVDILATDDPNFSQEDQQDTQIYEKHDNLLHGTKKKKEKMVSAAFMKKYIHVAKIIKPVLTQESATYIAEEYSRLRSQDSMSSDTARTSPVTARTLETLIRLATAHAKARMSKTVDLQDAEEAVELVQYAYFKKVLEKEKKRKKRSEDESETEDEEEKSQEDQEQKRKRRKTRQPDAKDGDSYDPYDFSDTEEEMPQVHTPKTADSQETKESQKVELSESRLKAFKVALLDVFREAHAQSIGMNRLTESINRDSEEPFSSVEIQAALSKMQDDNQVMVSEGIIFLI
UniProt P33993, whole entry, looked up: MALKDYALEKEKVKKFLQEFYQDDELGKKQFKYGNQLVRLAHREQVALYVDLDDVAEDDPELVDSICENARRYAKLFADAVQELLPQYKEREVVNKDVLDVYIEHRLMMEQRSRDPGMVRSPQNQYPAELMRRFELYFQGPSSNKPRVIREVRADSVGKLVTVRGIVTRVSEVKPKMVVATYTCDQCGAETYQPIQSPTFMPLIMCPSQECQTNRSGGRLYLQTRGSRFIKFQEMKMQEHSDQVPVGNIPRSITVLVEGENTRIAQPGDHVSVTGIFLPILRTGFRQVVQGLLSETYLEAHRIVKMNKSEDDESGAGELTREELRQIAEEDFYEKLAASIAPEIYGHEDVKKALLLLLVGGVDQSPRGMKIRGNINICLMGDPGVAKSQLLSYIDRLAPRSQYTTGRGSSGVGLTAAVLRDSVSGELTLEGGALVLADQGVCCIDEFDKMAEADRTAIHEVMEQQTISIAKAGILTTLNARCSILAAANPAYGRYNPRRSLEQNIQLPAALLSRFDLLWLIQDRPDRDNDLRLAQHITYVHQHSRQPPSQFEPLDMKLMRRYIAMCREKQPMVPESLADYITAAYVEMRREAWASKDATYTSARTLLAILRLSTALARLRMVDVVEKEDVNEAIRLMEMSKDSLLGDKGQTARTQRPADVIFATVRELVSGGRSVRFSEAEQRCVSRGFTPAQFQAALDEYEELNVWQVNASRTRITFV
UniProt Q86U44, whole entry, looked up: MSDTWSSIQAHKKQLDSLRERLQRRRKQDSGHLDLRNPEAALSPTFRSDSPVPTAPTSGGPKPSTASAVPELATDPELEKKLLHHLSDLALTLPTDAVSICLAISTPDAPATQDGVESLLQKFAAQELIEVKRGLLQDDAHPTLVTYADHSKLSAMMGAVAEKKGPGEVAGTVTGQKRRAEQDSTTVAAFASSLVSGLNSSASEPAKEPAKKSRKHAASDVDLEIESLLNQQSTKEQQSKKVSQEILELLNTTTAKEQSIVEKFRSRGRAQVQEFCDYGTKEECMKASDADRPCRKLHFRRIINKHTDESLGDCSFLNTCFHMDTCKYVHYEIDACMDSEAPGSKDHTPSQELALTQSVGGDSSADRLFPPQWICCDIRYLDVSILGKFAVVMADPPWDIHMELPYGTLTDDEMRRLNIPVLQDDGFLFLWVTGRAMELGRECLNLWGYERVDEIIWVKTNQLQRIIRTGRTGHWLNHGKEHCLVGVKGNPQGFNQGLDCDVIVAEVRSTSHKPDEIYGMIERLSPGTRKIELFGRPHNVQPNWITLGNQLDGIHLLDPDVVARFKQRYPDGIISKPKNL
UniProt Q9NPJ6: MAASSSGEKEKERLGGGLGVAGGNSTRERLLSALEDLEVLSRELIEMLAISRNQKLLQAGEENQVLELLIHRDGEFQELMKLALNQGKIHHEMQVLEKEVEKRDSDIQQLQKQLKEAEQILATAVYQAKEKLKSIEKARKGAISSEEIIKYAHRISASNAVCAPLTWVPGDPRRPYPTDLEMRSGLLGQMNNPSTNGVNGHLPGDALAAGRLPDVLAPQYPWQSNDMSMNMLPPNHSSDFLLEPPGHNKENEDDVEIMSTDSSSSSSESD
UniProt Q96RN5: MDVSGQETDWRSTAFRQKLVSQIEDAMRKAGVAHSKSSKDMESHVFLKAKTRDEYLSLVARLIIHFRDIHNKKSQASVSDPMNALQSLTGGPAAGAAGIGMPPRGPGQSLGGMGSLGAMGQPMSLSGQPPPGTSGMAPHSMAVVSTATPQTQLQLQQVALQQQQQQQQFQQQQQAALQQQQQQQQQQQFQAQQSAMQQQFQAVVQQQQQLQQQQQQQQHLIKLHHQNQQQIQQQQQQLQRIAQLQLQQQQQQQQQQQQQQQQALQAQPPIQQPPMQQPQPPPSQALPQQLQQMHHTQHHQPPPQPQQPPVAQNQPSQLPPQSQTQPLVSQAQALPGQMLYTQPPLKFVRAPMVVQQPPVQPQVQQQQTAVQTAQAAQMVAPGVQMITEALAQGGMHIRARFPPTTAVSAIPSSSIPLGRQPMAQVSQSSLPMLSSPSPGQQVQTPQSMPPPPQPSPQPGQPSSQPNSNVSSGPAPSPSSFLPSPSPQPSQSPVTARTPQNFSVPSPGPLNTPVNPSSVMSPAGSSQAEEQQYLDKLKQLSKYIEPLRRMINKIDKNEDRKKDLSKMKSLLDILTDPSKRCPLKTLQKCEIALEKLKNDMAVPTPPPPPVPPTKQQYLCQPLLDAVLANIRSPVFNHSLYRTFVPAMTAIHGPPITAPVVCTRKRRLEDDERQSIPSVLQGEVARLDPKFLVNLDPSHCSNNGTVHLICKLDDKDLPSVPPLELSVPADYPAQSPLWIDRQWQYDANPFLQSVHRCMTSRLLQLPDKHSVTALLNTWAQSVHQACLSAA
UniProt P50579: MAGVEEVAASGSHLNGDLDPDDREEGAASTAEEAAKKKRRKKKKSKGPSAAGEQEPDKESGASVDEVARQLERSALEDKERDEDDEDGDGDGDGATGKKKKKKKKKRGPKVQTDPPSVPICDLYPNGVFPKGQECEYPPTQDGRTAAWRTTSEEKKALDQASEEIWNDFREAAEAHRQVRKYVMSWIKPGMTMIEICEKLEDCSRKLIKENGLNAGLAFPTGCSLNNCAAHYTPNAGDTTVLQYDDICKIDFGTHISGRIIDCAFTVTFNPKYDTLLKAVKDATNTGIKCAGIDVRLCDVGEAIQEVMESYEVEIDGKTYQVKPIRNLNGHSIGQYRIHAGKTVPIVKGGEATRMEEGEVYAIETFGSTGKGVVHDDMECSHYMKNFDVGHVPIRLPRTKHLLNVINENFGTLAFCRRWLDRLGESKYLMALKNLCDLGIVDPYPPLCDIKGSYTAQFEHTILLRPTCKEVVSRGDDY
UniProt Q14728: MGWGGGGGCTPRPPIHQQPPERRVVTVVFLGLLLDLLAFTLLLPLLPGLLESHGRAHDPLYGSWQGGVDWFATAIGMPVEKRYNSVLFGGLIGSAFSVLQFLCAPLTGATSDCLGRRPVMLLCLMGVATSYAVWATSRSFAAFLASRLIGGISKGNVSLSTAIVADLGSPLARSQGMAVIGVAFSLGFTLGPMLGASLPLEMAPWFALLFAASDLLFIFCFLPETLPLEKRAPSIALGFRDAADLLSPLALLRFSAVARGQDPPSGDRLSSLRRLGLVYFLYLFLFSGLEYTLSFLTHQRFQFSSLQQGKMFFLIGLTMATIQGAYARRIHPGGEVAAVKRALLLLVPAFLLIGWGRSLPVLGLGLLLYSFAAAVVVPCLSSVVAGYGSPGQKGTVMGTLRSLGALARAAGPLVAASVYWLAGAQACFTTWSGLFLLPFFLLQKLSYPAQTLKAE
UniProt Q68D91: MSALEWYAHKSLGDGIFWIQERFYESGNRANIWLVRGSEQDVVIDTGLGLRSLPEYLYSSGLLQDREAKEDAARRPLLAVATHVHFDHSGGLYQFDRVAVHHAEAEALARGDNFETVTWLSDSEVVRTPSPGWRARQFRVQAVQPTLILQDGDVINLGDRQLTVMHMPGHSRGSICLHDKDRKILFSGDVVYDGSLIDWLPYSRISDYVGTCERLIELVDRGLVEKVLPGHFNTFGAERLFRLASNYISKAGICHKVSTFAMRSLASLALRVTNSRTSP
UniProt Q96HR3: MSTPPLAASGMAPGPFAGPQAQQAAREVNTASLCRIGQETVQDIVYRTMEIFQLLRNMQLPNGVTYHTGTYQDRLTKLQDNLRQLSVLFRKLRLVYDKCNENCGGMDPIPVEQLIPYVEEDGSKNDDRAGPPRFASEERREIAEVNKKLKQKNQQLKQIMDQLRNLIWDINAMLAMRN
UniProt Q5SR56: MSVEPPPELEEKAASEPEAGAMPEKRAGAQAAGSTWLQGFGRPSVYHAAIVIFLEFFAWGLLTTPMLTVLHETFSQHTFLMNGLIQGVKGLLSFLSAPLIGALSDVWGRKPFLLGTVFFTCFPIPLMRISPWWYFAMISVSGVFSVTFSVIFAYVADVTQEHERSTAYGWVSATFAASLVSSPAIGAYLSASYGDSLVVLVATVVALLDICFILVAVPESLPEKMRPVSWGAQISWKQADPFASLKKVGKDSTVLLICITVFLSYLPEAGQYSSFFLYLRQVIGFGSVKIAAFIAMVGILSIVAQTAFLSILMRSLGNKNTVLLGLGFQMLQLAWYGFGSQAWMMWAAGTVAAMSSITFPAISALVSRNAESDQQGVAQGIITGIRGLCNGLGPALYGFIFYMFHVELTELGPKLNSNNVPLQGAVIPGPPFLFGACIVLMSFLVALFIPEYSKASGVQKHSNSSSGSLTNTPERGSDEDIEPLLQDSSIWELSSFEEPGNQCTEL
UniProt Q9BTT4: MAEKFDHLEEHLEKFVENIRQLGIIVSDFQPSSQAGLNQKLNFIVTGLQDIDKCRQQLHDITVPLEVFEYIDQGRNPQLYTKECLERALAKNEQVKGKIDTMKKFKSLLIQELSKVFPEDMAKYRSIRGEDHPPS
UniProt Q6ZWT7: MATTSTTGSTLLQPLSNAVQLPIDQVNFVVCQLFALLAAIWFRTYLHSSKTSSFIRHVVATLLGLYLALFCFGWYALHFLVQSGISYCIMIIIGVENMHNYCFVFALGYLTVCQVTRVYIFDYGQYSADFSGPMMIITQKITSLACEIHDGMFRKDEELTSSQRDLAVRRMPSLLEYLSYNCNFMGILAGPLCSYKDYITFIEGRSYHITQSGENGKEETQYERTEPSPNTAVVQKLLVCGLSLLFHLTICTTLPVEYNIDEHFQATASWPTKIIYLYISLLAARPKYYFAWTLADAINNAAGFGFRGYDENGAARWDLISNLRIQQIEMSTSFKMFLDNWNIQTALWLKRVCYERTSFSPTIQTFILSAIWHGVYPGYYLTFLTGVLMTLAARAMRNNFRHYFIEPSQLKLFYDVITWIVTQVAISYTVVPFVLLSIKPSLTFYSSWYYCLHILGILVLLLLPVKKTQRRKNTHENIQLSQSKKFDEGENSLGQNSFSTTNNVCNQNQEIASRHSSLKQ
UniProt Q9ULC4: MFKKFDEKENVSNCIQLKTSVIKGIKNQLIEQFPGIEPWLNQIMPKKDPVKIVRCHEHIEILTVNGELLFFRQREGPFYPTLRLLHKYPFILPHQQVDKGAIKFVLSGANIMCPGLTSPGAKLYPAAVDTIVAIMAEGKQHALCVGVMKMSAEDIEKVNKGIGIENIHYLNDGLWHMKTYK
UniProt P43121, whole entry, looked up: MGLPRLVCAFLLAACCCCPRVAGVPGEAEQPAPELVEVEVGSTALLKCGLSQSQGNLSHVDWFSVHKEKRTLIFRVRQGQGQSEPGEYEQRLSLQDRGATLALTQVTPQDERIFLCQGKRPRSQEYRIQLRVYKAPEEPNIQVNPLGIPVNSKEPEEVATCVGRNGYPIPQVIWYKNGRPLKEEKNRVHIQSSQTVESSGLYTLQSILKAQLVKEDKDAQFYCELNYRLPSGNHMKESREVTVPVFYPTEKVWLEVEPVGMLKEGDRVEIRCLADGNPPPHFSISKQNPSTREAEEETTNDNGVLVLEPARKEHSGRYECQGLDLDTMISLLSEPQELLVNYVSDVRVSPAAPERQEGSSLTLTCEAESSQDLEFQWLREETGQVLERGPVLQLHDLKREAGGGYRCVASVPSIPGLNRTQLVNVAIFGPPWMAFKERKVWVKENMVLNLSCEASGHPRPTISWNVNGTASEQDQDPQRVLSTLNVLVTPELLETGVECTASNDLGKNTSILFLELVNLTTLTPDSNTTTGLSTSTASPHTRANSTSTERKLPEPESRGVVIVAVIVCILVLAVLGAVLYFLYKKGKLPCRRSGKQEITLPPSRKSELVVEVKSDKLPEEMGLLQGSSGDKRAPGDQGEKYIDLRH

Experiments:
Experiment in all cases: log2 fold change, soluble protein after heating vs DMSO (PISA); higher = thermal stabilisation; K562 cells, 10 uM, 30 min; active = over 0.2 and 3.5 SD of the protein, either way, in both replicates (recomputed)
[1] = compound: CS(=O)(=O)c1ccc(-c2cnc(N)c(C(=O)Nc3ccccc3)n2)cc1
Outline: (§1)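 K562 cells at 2×10^6 cells/mL were treated for 30 min with 10 μM compound, and aliquots were heated for 3 min over 48°C-58°C before pooling. Extraction used PBS with 0.5% NP-40 at 4°C, and soluble protein was the supernatant after 21,000xg for 90 min, measured by TMTpro 16plex LC-MS/MS with channel sums equalised. Thermal stability values, relative to control samples and from duplicates, are log2 fold changes.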

[2] = compound: C[C@@H](Oc1cc(-c2cnn(C3CCNCC3)c2)cnc1N)c1c(Cl)ccc(F)c1Cl [crizotinib]
Outline: as §1

[3] = compound: C[C@@H]1COCCN1C2=NC(=NC(=C2)C3(CC3)S(=O)(=O)C)C4=C5C=CNC5=CC=C4
Outline: as §1

[4] = compound: C[C@H](C1=CC=C(C=C1)C(=O)NC2=C3C=CNC3=NC=C2)N
Outline: as §1

[5] = compound: C[C@H](Nc1ncnc2nc[nH]c12)c1cc2cccc(Cl)c2c(=O)n1-c1ccccc1 [duvelisib]
Outline: as §1

[6] = compound: Cc1cc(Nc2cc(CN3CCOCC3)c3nc(C)c(Cc4ccc(Cl)cc4F)n3n2)n[nH]1 [gandotinib]
Outline: as §1

[7] = compound: Cc1cc(Nc2cc(N3CCN(C)CC3)nc(Sc3ccc(NC(=O)C4CC4)cc3)n2)n[nH]1 [tozasertib]
Outline: as §1

[8] = compound: Cc1cc(SCc2sc(-c3ccc(C(F)(F)F)cc3)nc2C)ccc1OCC(=O)O
Outline: as §1

[9] = compound: Cc1ccc(-n2nc(C(C)(C)C)cc2NC(=O)Nc2ccc(OCCN3CCOCC3)c3ccccc23)cc1 [doramapimod]
Outline: as §1

[10] = compound: Cc1ccc(C(=O)N(CCCN)[C@@H](c2nc3cc(Cl)ccc3c(=O)n2Cc2ccccc2)C(C)C)cc1 [ispinesib]
Outline: as §1

Measured: log2 fold change

MARS2 (UniProt Q96GW9)
inactive: [1] 0.01 | [2] 0.038 | [3] -0.007 | [4] 0.009 | [5] 0.076 | [6] 0.036 | [7] -0.001 | [8] -0.056 | [9] -0.01 | [10] 0.027

METTL21A (UniProt Q8WXB1)
inactive: [1] -0.039 | [2] 0.063 | [3] 0.114 | [4] -0.019 | [5] 0.009 | [6] -0.048 | [7] -0.087 | [8] 0.03 | [9] 0.029 | [10] 0.062

MED23 (UniProt Q9ULK4)
inactive: [1] 0 | [2] -0.079 | [3] 0.016 | [4] 0.049 | [5] -0.036 | [6] -0.11 | [7] 0.043 | [8] 0.037 | [9] 0.07 | [10] -0.057

MCM3 isoform 2 (UniProt P25205)
inactive: [1] 0.013 | [2] -0.001 | [3] 0.032 | [4] -0.094 | [5] 0.002 | [6] -0.046 | [7] 0.002 | [8] 0.018 | [9] 0.012 | [10] 0.048

MCUB (UniProt Q9NWR8)
inactive: [1] -0.044 | [2] 0.079 | [3] -0.056 | [4] -0.012 | [5] 0.126 | [6] -0.155 | [7] -0.063 | [8] -0.031 | [9] -0.059 | [10] -0.074

MCM7 (UniProt P33993)
inactive: [1] 0.028 | [2] -0.024 | [3] 0.033 | [4] -0.126 | [5] 0.004 | [6] -0.081 | [7] 0.008 | [8] -0.003 | [9] -0.003 | [10] 0.008

METTL3 (UniProt Q86U44)
inactive: [1] 0.05 | [2] -0.005 | [3] 0.055 | [4] -0.043 | [5] 0.039 | [6] 0.004 | [7] 0.006 | [8] 0.016 | [9] 0.018 | [10] 0.028

MAT2B (UniProt Q9NZL9)
inactive: [1] 0.031 | [2] 0.029 | [3] 0.05 | [4] -0.012 | [5] 0.027 | [6] 0.028 | [7] -0.002 | [8] -0.072 | [9] 0.007 | [10] 0

MBD3 (UniProt O95983)
inactive: [1] -0.032 | [2] -0.067 | [3] 0.019 | [4] 0.13 | [5] -0.012 | [6] -0.018 | [7] 0.048 | [8] -0.1 | [9] 0.038 | [10] -0.129

MBOAT7 (UniProt Q96N66)
inactive: [1] -0.033 | [2] 0.052 | [3] 0.011 | [4] -0.078 | [5] 0.018 | [6] -0.049 | [7] 0.01 | [8] -0.019 | [9] -0.013 | [10] -0.003

MED4 (UniProt Q9NPJ6)
inactive: [1] -0.051 | [2] 0.031 | [3] -0.024 | [4] -0.041 | [5] 0.026 | [6] -0.081 | [7] 0.007 | [8] 0.025 | [9] 0.004 | [10] 0.004

MED20 (UniProt Q9H944)
inactive: [1] -0.013 | [2] -0.024 | [3] 0.052 | [4] 0.01 | [5] 0.004 | [6] -0.073 | [7] -0.085 | [8] 0.004 | [9] 0.004 | [10] 0.02

MGAT4B isoform 3 (UniProt Q9UQ53)
inactive: [1] 0.013 | [2] -0.018 | [3] 0.028 | [4] 0.093 | [5] 0.022 | [6] -0.001 | [7] -0.054 | [8] -0.037 | [9] 0.042 | [10] 0.042

MECP2 isoform 2 (UniProt P51608)
inactive: [1] 0.014 | [2] 0.073 | [3] -0.403 | [4] 0.331 | [5] -0.11 | [6] 0.21 | [7] 0.024 | [8] -0.037 | [9] 0.176 | [10] -0.158

MED15 (UniProt Q96RN5)
inactive: [1] 0.043 | [2] -0.055 | [3] 0 | [4] -0.012 | [5] 0.004 | [6] -0.121 | [7] -0.001 | [8] 0.008 | [9] 0.038 | [10] -0.052

METTL2B (UniProt Q6P1Q9)
inactive: [1] 0.076 | [2] -0.235 | [3] 0.117 | [4] 0.09 | [5] -0.048 | [6] -0.229 | [8] 0.083 | [9] 0.124 | [10] -0.164

METAP2 (UniProt P50579)
inactive: [1] 0.069 | [2] 0.014 | [3] -0.018 | [4] 0.132 | [5] 0.016 | [6] 0.052 | [7] -0.011 | [8] -0.021 | [9] -0.038 | [10] 0.018

MFSD10 (UniProt Q14728)
inactive: [1] 0.038 | [2] -0.011 | [3] 0.06 | [4] -0.004 | [5] 0.125 | [6] 0 | [7] -0.002 | [8] 0.102 | [9] 0.059 | [10] -0.01

MBLAC2 (UniProt Q68D91)
inactive: [1] -0.012 | [2] 0.06 | [3] 0.011 | [4] -0.085 | [5] 0.025 | [6] 0.015 | [7] -0.076 | [8] -0.048 | [9] 0.014 | [10] 0.088

MED30 (UniProt Q96HR3)
inactive: [1] -0.084 | [2] -0.021 | [3] -0.024 | [4] -0.032 | [5] -0.025 | [7] 0.02 | [8] 0.037 | [9] -0.035 | [10] 0.044

MDH1 isoform 3 (UniProt P40925)
inactive: [1] -0.02 | [2] 0.037 | [3] 0.033 | [4] -0.066 | [5] 0.032 | [6] -0.011 | [7] -0.032 | [8] -0.02 | [9] -0.018 | [10] 0.042

MFSD14B (UniProt Q5SR56)
inactive: [1] 0.059 | [2] 0.027 | [3] -0.261 | [4] -0.083 | [5] 0.12 | [7] 0.051 | [8] 0.051 | [9] -0.065

MCM4 (UniProt P33991)
inactive: [1] -0.003 | [2] -0.006 | [3] 0.069 | [4] -0.115 | [5] 0.044 | [6] -0.104 | [7] 0.031 | [8] 0.03 | [9] 0.002 | [10] 0.003

Quoted at random: two entries already listed.
MED15 (UniProt Q96RN5)
inactive: [1] 0.043 | [2] -0.055 | [3] 0 | [4] -0.012 | [5] 0.004 | [6] -0.121 | [7] -0.001 | [8] 0.008 | [9] 0.038 | [10] -0.052

METTL2B (UniProt Q6P1Q9)
inactive: [1] 0.076 | [2] -0.235 | [3] 0.117 | [4] 0.09 | [5] -0.048 | [6] -0.229 | [8] 0.083 | [9] 0.124 | [10] -0.164

(cont.)

MEF2C isoform 5 (UniProt Q06413)
inactive: [1] -0.014 | [2] 0.029 | [3] -0.151 | [4] -0.011 | [5] -0.069 | [6] -0.149 | [7] -0.131 | [8] -0.185 | [9] -0.016 | [10] 0.012

MDH2 (UniProt P40926)
inactive: [1] -0.011 | [2] 0.076 | [3] -0.007 | [4] -0.049 | [5] -0.001 | [6] -0.02 | [7] -0.009 | [8] -0.03 | [9] -0.029 | [10] 0.039

MCRIP2 (UniProt Q9BUT9)
inactive: [1] 0.106 | [2] -0.003 | [3] 0.192 | [4] -0.079 | [5] -0.165 | [6] -0.026 | [7] 0.135 | [8] 0.054 | [9] 0.067 | [10] 0.164

MED10 (UniProt Q9BTT4)
inactive: [1] -0.029 | [2] 0.12 | [3] 0.179 | [4] -0.096 | [5] 0.172 | [6] 0.018 | [7] 0.016 | [8] 0.098 | [9] 0.102 | [10] 0.064

MBOAT2 (UniProt Q6ZWT7)
inactive: [1] -0.03 | [2] 0.042 | [3] -0.06 | [4] -0.097 | [5] 0.019 | [6] -0.057 | [7] 0.027 | [8] -0.039 | [9] 0.009 | [10] -0.007

MCTS1 isoform 3 (UniProt Q9ULC4)
inactive: [1] 0.011 | [2] 0.037 | [3] 0.019 | [4] -0.072 | [5] 0.001 | [6] 0.021 | [7] -0.004 | [8] -0.018 | [9] -0.035 | [10] 0.044

MCAM (UniProt P43121)
inactive: [1] 0.038 | [2] 0.065 | [3] 0.06 | [4] -0.072 | [5] 0.026 | [6] -0.03 | [7] -0.072 | [8] -0.063 | [9] 0.002 | [10] 0.058
